The list shows a part of the results.

Sequences of proteins named here, by UniProt entry; tags and fusion partners are left off. A change or cut given only in a name is not applied to a line headed by its entry.
UniProt Q12980: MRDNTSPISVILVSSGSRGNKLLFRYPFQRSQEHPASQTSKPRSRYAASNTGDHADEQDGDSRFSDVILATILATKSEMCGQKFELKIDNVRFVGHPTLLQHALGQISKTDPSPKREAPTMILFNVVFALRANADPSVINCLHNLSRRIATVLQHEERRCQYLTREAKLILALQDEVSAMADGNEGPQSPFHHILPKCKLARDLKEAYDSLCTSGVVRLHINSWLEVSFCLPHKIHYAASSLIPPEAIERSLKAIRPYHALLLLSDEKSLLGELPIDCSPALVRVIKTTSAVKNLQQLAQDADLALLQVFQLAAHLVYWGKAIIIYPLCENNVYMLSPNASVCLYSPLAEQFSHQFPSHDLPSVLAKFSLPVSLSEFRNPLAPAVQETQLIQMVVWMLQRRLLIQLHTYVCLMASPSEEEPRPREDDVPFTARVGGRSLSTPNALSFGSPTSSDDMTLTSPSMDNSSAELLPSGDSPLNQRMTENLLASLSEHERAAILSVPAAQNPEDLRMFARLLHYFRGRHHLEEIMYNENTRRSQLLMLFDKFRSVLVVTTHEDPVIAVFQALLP
UniProt P13056: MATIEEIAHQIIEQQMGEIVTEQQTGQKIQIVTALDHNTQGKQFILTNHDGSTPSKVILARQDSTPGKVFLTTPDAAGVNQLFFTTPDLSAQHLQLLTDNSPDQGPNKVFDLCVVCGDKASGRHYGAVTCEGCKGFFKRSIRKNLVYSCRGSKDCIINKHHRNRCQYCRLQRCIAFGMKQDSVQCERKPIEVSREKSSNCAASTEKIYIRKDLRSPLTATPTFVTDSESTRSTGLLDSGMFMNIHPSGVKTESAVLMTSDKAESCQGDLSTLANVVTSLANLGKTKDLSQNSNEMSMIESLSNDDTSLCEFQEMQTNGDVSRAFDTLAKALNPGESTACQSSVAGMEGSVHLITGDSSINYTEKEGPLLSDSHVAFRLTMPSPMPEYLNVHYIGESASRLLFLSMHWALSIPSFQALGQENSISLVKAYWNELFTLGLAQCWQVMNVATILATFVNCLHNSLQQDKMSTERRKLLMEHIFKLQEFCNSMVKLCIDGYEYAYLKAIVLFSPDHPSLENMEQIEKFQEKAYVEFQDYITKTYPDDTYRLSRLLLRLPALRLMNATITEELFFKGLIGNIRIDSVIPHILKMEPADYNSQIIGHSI
UniProt P48645: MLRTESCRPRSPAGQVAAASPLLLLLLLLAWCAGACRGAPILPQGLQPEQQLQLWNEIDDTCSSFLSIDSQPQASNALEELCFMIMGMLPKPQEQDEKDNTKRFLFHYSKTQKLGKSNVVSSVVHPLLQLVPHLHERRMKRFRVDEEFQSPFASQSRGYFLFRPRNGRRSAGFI
UniProt Q96MY1: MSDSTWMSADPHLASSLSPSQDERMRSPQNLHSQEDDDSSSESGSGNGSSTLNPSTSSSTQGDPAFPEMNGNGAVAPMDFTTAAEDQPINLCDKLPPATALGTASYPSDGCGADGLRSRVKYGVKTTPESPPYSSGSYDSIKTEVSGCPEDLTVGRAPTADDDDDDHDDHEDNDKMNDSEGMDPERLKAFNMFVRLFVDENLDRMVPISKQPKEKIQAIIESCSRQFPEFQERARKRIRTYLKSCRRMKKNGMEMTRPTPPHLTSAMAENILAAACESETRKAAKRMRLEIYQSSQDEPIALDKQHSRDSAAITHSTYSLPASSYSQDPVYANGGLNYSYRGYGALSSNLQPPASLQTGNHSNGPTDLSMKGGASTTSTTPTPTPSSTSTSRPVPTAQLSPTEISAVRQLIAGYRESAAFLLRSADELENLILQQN
UniProt Q96AB6: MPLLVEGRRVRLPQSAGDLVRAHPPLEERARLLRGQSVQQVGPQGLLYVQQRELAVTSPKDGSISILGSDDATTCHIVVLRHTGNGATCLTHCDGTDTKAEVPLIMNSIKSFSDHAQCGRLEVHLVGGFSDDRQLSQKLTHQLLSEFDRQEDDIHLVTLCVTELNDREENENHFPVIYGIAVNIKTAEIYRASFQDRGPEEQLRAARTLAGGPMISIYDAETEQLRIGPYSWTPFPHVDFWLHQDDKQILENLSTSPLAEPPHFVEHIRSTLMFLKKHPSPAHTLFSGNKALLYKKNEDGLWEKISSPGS
UniProt Q9NQ35: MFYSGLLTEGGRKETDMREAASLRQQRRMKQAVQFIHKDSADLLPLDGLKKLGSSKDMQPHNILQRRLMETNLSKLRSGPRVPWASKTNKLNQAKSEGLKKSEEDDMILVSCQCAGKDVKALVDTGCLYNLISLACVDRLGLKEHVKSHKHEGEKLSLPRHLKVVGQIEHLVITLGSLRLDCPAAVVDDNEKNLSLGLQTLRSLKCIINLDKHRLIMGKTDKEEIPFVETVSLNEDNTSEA
UniProt Q9UHK0: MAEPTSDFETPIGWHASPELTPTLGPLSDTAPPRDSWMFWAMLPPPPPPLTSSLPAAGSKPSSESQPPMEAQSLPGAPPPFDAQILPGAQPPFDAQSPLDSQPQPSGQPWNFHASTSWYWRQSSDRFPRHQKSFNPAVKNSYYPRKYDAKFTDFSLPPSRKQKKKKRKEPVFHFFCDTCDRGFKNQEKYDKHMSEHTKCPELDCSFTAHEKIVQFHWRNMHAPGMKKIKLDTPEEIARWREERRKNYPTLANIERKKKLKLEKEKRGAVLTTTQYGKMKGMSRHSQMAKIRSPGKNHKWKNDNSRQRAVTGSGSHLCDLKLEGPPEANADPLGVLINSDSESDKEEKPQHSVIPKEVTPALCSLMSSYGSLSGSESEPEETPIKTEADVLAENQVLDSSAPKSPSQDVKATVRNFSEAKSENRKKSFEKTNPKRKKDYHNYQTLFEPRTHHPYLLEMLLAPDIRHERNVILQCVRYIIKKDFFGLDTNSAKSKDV
UniProt Q9BZ95: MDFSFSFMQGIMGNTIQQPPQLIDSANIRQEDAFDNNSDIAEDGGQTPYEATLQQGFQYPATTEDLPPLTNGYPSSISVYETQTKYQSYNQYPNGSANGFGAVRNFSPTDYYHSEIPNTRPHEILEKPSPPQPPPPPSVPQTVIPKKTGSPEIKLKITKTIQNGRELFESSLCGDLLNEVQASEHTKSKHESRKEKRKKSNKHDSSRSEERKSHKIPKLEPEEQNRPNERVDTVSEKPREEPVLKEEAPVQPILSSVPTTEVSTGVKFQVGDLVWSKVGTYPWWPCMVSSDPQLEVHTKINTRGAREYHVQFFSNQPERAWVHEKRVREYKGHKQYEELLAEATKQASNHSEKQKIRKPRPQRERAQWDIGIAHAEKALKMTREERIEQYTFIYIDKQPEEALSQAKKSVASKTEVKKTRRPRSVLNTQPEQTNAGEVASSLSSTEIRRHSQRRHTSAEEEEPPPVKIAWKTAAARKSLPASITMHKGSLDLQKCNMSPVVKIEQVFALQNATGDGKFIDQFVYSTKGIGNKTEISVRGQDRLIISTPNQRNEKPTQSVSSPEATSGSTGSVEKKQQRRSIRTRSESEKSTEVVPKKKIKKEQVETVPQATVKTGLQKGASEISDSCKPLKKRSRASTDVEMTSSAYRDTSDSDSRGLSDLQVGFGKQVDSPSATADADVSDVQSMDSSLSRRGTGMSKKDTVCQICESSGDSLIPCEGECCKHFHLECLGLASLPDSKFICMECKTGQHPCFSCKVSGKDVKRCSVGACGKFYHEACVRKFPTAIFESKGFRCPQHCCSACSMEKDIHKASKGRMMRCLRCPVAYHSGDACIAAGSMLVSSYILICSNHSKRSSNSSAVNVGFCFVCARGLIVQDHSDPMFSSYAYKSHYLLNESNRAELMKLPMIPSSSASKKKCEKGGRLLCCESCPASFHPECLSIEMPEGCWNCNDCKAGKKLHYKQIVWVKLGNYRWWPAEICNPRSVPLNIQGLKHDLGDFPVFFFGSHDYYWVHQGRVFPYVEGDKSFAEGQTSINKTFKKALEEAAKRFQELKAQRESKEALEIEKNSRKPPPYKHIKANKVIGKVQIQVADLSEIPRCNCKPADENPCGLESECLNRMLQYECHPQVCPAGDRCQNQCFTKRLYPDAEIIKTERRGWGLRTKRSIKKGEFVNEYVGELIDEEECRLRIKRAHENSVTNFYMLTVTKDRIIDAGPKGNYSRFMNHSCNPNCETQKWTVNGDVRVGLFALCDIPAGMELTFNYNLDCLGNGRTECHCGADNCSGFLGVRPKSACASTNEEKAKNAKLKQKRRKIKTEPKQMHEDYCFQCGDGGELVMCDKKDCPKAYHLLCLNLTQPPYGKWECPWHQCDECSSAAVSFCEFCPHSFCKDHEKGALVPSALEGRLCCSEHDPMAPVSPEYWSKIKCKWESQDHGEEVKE
UniProt Q6ZVK8: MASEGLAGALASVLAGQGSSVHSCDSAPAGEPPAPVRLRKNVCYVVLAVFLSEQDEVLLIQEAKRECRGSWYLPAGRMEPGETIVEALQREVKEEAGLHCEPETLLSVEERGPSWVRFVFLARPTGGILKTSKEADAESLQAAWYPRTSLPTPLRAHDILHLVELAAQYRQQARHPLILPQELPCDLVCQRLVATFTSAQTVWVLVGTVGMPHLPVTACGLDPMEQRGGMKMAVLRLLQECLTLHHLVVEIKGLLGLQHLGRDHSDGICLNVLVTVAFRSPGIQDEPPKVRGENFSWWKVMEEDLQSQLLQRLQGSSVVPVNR
UniProt Q5C9Z4: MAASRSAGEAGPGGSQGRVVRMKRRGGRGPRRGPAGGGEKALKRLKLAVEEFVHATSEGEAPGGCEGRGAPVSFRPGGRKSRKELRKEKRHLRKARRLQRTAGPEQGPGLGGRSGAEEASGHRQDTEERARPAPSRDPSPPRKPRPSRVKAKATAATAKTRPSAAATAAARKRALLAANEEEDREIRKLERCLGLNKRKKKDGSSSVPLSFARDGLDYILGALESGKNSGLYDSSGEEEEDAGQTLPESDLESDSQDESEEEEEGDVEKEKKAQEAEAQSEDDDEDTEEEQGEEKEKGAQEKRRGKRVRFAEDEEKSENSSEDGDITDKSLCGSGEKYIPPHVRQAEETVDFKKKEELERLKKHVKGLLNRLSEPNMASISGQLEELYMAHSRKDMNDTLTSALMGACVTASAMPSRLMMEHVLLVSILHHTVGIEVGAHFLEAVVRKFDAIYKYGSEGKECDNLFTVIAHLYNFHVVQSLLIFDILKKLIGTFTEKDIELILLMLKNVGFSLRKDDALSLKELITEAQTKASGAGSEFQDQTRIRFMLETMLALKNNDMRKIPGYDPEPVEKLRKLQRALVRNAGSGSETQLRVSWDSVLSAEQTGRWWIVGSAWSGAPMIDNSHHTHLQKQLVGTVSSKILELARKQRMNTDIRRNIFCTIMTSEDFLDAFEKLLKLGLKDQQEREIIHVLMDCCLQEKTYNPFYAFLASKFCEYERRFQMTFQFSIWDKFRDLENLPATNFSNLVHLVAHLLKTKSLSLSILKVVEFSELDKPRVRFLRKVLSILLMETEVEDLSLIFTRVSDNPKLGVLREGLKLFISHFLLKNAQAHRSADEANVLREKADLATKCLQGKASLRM
UniProt P53370: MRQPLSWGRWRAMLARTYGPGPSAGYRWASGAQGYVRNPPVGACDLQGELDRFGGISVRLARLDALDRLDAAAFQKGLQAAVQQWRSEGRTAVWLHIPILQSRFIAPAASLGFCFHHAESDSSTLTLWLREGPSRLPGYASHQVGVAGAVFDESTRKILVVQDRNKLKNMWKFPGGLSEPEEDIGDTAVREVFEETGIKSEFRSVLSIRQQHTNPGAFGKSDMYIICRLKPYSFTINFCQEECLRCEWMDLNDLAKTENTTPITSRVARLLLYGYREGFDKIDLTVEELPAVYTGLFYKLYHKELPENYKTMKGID
UniProt P10588: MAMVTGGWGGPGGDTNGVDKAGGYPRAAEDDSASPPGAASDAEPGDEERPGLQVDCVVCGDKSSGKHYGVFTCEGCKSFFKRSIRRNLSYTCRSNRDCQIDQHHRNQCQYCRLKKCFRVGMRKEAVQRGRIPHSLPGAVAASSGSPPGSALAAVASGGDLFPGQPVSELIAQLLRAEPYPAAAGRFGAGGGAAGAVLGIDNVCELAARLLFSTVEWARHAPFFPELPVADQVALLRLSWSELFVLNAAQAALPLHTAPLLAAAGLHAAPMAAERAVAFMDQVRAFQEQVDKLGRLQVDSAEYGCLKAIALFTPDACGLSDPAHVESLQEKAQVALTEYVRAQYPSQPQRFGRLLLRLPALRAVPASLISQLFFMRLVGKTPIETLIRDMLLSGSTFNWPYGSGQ
UniProt Q9UK39: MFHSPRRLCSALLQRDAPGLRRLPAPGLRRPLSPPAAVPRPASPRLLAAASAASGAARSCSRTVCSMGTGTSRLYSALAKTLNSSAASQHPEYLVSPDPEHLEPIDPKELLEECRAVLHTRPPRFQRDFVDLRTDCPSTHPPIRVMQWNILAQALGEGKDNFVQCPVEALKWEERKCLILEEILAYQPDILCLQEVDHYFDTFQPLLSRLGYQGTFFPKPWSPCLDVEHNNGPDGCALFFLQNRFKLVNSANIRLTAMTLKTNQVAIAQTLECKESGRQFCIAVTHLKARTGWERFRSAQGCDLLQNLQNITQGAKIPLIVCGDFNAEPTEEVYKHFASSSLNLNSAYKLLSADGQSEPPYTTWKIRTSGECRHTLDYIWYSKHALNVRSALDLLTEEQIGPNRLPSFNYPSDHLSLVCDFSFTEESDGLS

Compound in one assay: C[C@H](C1=CC=C(C=C1)C(=O)NC2=C3C=CNC3=NC=C2)N
Nature of the assay: log2 fold change, soluble protein after heating vs DMSO (PISA); higher = thermal stabilisation; K562 lysate, 10 uM; active = over 0.2 and 3.5 SD of the protein, either way, in both replicates (recomputed). In short, it runs like this: (§1)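 A 30 min treatment with 10 μM compound was applied to crude K562 extract at 1 mg/mL protein in PBS pH 7.4 with 1 mM MgCl2. Heating for 3 min spanned 48°C-58°C, after which aliquots were pooled, adjusted to 0.5% NP-40 at 4°C and spun at 21,000xg for 90 min. TMTpro 16plex LC-MS/MS of the supernatant, with channel sums equalised, gave values recorded as log-two fold change in thermal stability against solvent controls, from duplicates.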
In the case of NR3C1 isoform 3 (UniProt P04150), the log2 fold change is inactive: 0.057.

Turning to NPRL3 (UniProt Q12980), the log2 fold change is inactive: -0.192.

As to NR2C1 (UniProt P13056), the log2 fold change was inactive: -0.073.

On to NMU (UniProt P48645), for which the log2 fold change was inactive: -0.031.

As to NSD1 (UniProt Q96L73), the log2 fold change is inactive: -0.02.

For the target NOL4L (UniProt Q96MY1), the log2 fold change was inactive: -0.098.

As to NOL8 (UniProt Q76FK4), the log2 fold change was inactive: -0.075.

Take NTAN1 (UniProt Q96AB6): the log2 fold change was inactive: -0.088.

For the target NTRK1 (UniProt P04629), the log2 fold change is inactive: -0.172.

As to NRIP3 (UniProt Q9NQ35), the log2 fold change was inactive: 0.008.

Take NUFIP1 (UniProt Q9UHK0): the log2 fold change is inactive: -0.027.

As to NSD3 (UniProt Q9BZ95), the log2 fold change was inactive: -0.045.

As for NUDT18 (UniProt Q6ZVK8), the log2 fold change was inactive: -0.15.

For NOM1 (UniProt Q5C9Z4), the log2 fold change was inactive: 0.069.

Compound in a further assay: C[C@H](Nc1ncnc2nc[nH]c12)c1cc2cccc(Cl)c2c(=O)n1-c1ccccc1 [duvelisib]
The description is as above. In short, it runs like this: as §1
For the target NUMB isoform 2 (UniProt P49757), the log2 fold change is inactive: 0.023.

For the target NR3C1 isoform 3 (UniProt P04150), the log2 fold change is inactive: 0.046.

With NRGN (UniProt Q92686), the log2 fold change is inactive: -0.073.

As to NOL3 isoform 3 (UniProt O60936), the log2 fold change was inactive: 0.195.

In the case of NPLOC4 (UniProt I3L3I1), the log2 fold change is inactive: 0.038.

For the target NT5C2 (UniProt Q5JUV3), the log2 fold change was inactive: 0.027.

NSD1 (UniProt Q96L73): the log2 fold change is inactive: 0.143.

Regarding NUDT6 (UniProt P53370), the log2 fold change is inactive: -0.034.

Turning to NUBPL (UniProt Q8TB37), the log2 fold change was inactive: 0.027.

In the case of NR2F6 (UniProt P10588), the log2 fold change is inactive: 0.011.

Turning to NOL4L (UniProt Q96MY1), the log2 fold change is inactive: -0.033.

NOL8 (UniProt Q76FK4): the log2 fold change is inactive: 0.047.

As for NRSN2 (UniProt Q9GZP1), the log2 fold change was inactive: 0.08.

On to NTAN1 (UniProt Q96AB6), for which the log2 fold change is inactive: -0.001.

With NOCT (UniProt Q9UK39), the log2 fold change was inactive: 0.039.

On to NTRK1 (UniProt P04629), for which the log2 fold change is inactive: 0.106.

NUFIP1 (UniProt Q9UHK0): the log2 fold change was inactive: 0.064.

In the case of NSD3 (UniProt Q9BZ95), the log2 fold change is inactive: 0.074.

NOMO3 (UniProt P69849): the log2 fold change is inactive: -0.087.

In the case of NOM1 (UniProt Q5C9Z4), the log2 fold change is inactive: -0.036.

Compound in a further assay: Cc1cc(Nc2cc(CN3CCOCC3)c3nc(C)c(Cc4ccc(Cl)cc4F)n3n2)n[nH]1 [gandotinib]
The description is as above. The gist of the method:
as §1
NR3C1 isoform 3 (UniProt P04150): the log2 fold change was inactive: -0.091.

For NPRL3 (UniProt Q12980), the log2 fold change was inactive: 0.176.

On to NR2C1 (UniProt P13056), for which the log2 fold change was inactive: -0.081.

For the target NMU (UniProt P48645), the log2 fold change is inactive: -0.169.

As to NSD1 (UniProt Q96L73), the log2 fold change is inactive: 0.053.

Turning to NOL4L (UniProt Q96MY1), the log2 fold change is inactive: -0.027.

For NOL8 (UniProt Q76FK4), the log2 fold change was inactive: -0.293.

Regarding NTAN1 (UniProt Q96AB6), the log2 fold change was inactive: 0.039.

Take NTRK1 (UniProt P04629): the log2 fold change was inactive: 0.484.

With NRIP3 (UniProt Q9NQ35), the log2 fold change was inactive: 0.056.

As to NUFIP1 (UniProt Q9UHK0), the log2 fold change was inactive: 0.

Regarding NSD3 (UniProt Q9BZ95), the log2 fold change was inactive: 0.235.

As for NUDT18 (UniProt Q6ZVK8), the log2 fold change was inactive: 0.035.

Consider NOM1 (UniProt Q5C9Z4), for which the log2 fold change is inactive: 0.108.

Compound in the next assay: Cc1cc(Nc2cc(N3CCN(C)CC3)nc(Sc3ccc(NC(=O)C4CC4)cc3)n2)n[nH]1 [tozasertib]
The assay is described as above. In short, it runs like this:
as §1
As for NR3C1 isoform 3 (UniProt P04150), the log2 fold change is inactive: 0.012.

In the case of NPLOC4 (UniProt I3L3I1), the log2 fold change is inactive: -0.216.

Consider NT5C2 (UniProt Q5JUV3), for which the log2 fold change is inactive: -0.009.

Turning to NME4 (UniProt O00746), the log2 fold change was inactive: -0.056.

With NMU (UniProt P48645), the log2 fold change is inactive: 0.004.

Turning to NSD1 (UniProt Q96L73), the log2 fold change was inactive: 0.04.

For NR1D1 (UniProt P20393), the log2 fold change was inactive: -0.092.

With NUDT6 (UniProt P53370), the log2 fold change is inactive: 0.132.

Turning to NUBPL (UniProt Q8TB37), the log2 fold change is inactive: 0.012.

In the case of NR2F6 (UniProt P10588), the log2 fold change was inactive: 0.208.

Regarding NOL4L (UniProt Q96MY1), the log2 fold change is inactive: -0.098.

As to NTAN1 (UniProt Q96AB6), the log2 fold change was inactive: 0.02.

Consider NOCT (UniProt Q9UK39), for which the log2 fold change was inactive: 0.111.

Turning to NTRK1 (UniProt P04629), the log2 fold change was inactive: 0.074.

For the target NRIP3 (UniProt Q9NQ35), the log2 fold change was inactive: -0.11.

For NUDT5 (UniProt C9JYY9), the log2 fold change is inactive: 0.004.

As to NUDT22 (UniProt Q9BRQ3), the log2 fold change is inactive: -0.026.

In the case of NUFIP1 (UniProt Q9UHK0), the log2 fold change is inactive: -0.119.

NSD3 (UniProt Q9BZ95): the log2 fold change is inactive: 0.104.

For the target NUDT18 (UniProt Q6ZVK8), the log2 fold change was inactive: -0.001.

For the target NOM1 (UniProt Q5C9Z4), the log2 fold change is inactive: 0.087.

Compound in the next assay: Cc1ccc(-n2nc(C(C)(C)C)cc2NC(=O)Nc2ccc(OCCN3CCOCC3)c3ccccc23)cc1 [doramapimod]
The description is as above. The gist of the method: as §1
In the case of NR3C1 isoform 3 (UniProt P04150), the log2 fold change is inactive: -0.005.

NPRL2 (UniProt Q8WTW4): the log2 fold change was inactive: 0.036.

Take NRGN (UniProt Q92686): the log2 fold change is inactive: 0.02.

In the case of NOL3 isoform 3 (UniProt O60936), the log2 fold change is inactive: 0.167.

In the case of NPRL3 (UniProt Q12980), the log2 fold change is inactive: -0.011.

As to NR2C1 (UniProt P13056), the log2 fold change is inactive: -0.178.

As to NPLOC4 (UniProt I3L3I1), the log2 fold change is inactive: -0.002.

As for NUB1 isoform 2 (UniProt Q9Y5A7), the log2 fold change was inactive: 0.063.

As for NT5C2 (UniProt Q5JUV3), the log2 fold change was inactive: -0.021.

For NME4 (UniProt O00746), the log2 fold change is inactive: 0.035.

Regarding NMU (UniProt P48645), the log2 fold change was inactive: -0.015.

Regarding NUDT6 (UniProt P53370), the log2 fold change is inactive: -0.073.

As to NR2F6 (UniProt P10588), the log2 fold change is inactive: -0.074.

With NOL8 (UniProt Q76FK4), the log2 fold change is inactive: 0.086.

On to NTAN1 (UniProt Q96AB6), for which the log2 fold change was inactive: 0.

For NOCT (UniProt Q9UK39), the log2 fold change is inactive: 0.063.

In the case of NTRK1 (UniProt P04629), the log2 fold change is inactive: 0.09.

In the case of NMRK1 (UniProt Q9NWW6), the log2 fold change was inactive: 0.055.

For NUDT22 (UniProt Q9BRQ3), the log2 fold change is inactive: 0.021.

As for NUFIP1 (UniProt Q9UHK0), the log2 fold change is inactive: -0.172.

In the case of NSD3 (UniProt Q9BZ95), the log2 fold change is inactive: 0.15.

NOMO3 (UniProt P69849): the log2 fold change is inactive: 0.014.

For NUDT18 (UniProt Q6ZVK8), the log2 fold change was inactive: 0.062.

On to NOM1 (UniProt Q5C9Z4), for which the log2 fold change is inactive: -0.075.

Source of the values: the supplement of paper PMC10849652.
